PubChem BioAssay AID1487 (National Center for Advancing Translational Sciences (NCATS), 2009)
Several values for one entry are separate records, joined by “and”; a condition that tells them apart may be missing. Equal entries are not always repeated. The list shows a part of the results. The main result of the screen is listed elsewhere. These columns were measured beside it and carry no call. The list favours compounds with an active or inconclusive main result. Potencies come from curve fits of mixed quality, noted in brackets.

Assay: qHTS Assay for Modulators of Lamin A Splicing
Conditions: HeLa LMNA splicing GFP/RFP minigene ratio, 48 h
Summary of the method: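 S3 HeLa stable clones carrying a lamin A-EGFP splicing minigene plus DsRed2 were seeded at 600 cells/well in Opti-MEM with 2% FBS, pin-dosed and incubated 48 h at 37°C. Acumen cytometry (488 nm) gave the GFP/RFP total-intensity ratio.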

[1] = measured here: GFP splicing reporter channel
[2] = measured here: RFP viability control channel

| Structure (SMILES) | AC50 [1] | AC50 [2] |
| --- | --- | --- |
| NC(=O)CCS(=O)(=O)c1ccc(Cl)cc1 | 0.0631 µM [rising, partial curve, poor fit] |  |
| COc1ccc(OC(=O)c2cc(-c3ccc4c(c3)OCCO4)on2)cc1 |  | 7.08 µM [rising, full curve, poor fit] |
| COc1ccc(-c2nn(-c3ccccc3)cc2C(=O)Nc2nccs2)cc1 | 4.47 µM [rising, partial curve, poor fit] | 14.1 µM [rising, single point] |
| Oc1ccccc1OCCOc1ccccc1OCCOc1ccccc1O | 35.5 µM [falling, single point] |  |
| COc1ccc2c(c1)c(C(=O)N/N=C/c1ccc(O)c(O)c1)c(C)n2C |  | 22.4 µM [rising, single point] |
| CCCCc1c(C)nc2ccc(Br)cc2c1SCCC#N |  | 12.6 µM [rising, partial curve] |
| CCOC(=O)c1c(C)[nH]c(C(=O)COC(=O)CNC(=O)c2ccc(Br)cc2)c1C | 3.16 µM [falling, full curve, poor fit] |  |
| CC(C)(C)c1cc(C(c2cccnc2)N2CCN(CCO)CC2)cc(C(C)(C)C)c1O (stereo unspecified) |  | 10 µM [falling, partial curve] |
| CC(=O)C1=NN(c2ccccc2)C(c2ccc3c(c2)OCO3)N1c1ccccc1 (stereo unspecified) | 35.5 µM [rising, single point] | 35.5 µM [rising, single point] |
| Cc1ccc2c(C)nc(NC3=NCN(CCc4ccccc4)CN3)nc2c1 |  | 3.16 µM [rising, partial curve, poor fit] |
| Cc1cccc(/C=C2\Oc3cc(OS(C)(=O)=O)ccc3C2=O)c1 | 12.6 µM [rising, single point] | 5.62 µM [rising, partial curve, poor fit] |
| Cc1c(N(C)CS(=O)(=O)O)c(=O)n(-c2ccccc2)n1C | 0.0355 µM [rising, full curve, poor fit] |  |
| COc1ccc(C(=O)NCC(=O)OCc2cc(=O)n3nc(C4CCCCC4)sc3n2)cc1 | 4.47 µM [falling, partial curve, poor fit] |  |
| Nc1ccc2nc(SCc3cccc(F)c3)sc2c1 | 1.12 µM [rising, partial curve] |  |
| Cc1ccc(N2C(=O)c3cccc4c(N5CCN(C)CC5)ccc(c34)C2=O)c2cccnc12 |  | 20 µM [rising, single point] |
| CCOC(=O)c1c(/N=C/c2cccc([N+](=O)[O-])c2O)sc(C)c1C |  | 17.8 µM [rising, single point] |
| CC(C)OC(=O)CSc1nc(N)c(C#N)cc1C#N | 0.141 µM [falling, partial curve, poor fit] | 25.1 µM [falling, partial curve, poor fit] |
| COC(=O)C(NNc1ccccc1C)(NC(=O)c1ccc(F)cc1)C(F)(F)F (stereo unspecified) | 35.5 µM [rising, single point] | 25.1 µM [rising, single point] |
| CSCc1cc(N2CCOCC2)nc(-c2ccccc2)n1 | 0.00447 µM [falling, full curve, poor fit] | 0.00355 µM [falling, full curve, poor fit] |
| CCCCNC(=O)CSc1nc2ccc(N3CCOCC3)cc2c(=O)n1CCc1ccccc1 |  | 20 µM [rising, partial curve] |
| CCCOc1ccc(Cc2nc(N)nc(N)n2)cc1 |  | 14.1 µM [rising, single point] |
| Cc1cc(C(=O)CSc2nnnn2C)c(C)n1-c1ccc2c(c1)OCCO2 |  | 35.5 µM [rising, single point] |
| CCOc1ccc(NC(=O)Cn2nnc(C(=O)NCCc3ccc(OC)c(OC)c3)c2N)cc1 |  | 0.0708 µM [falling, full curve, poor fit] |
| COc1ccc(S(=O)(=O)Nc2ccccc2-c2nnn(CC(=O)Nc3ccccc3OC)n2)cc1 | 5.01 µM [rising, full curve, poor fit] | 5.01 µM [rising, full curve] |
| CN(C)S(=O)(=O)c1cccc(C(=O)Nc2ccccc2[N+](=O)[O-])c1 | 35.5 µM [rising, single point] | 25.1 µM [rising, single point] |
| COc1cc(N=c2ssnc2Cl)c(OC)cc1Cl | 10 µM [rising, partial curve, poor fit] |  |
| Cc1cc(C)c2c(N)c(C(=O)c3ccc(Cl)cc3Cl)sc2n1 |  | 22.4 µM [rising, single point] |

| Structure (SMILES) | AC50 [1] | AC50 [2] |
| --- | --- | --- |
| COc1ccccc1C(=O)OCC(=O)Nc1ccc(Cl)cn1 | 0.02 µM [rising, full curve, poor fit] |  |
| O=C(c1cccs1)c1ccc(-c2cccs2)s1 |  | 11.2 µM [rising, partial curve] |
| CC(C)c1ccc(NC(=S)NC2CCN(Cc3ccccc3)CC2)cc1 |  | 35.5 µM [rising, single point] |
| CCCCn1c(-c2csc(C(C)C)c2)n[nH]c1=S | 11.2 µM [rising, single point] | 12.6 µM [rising, single point] |
| O=C(CCCN1C(=O)c2ccccc2C1=O)N1CCc2ccccc2C1 | 2.24 µM [rising, full curve, poor fit] | 3.16 µM [rising, partial curve] |
| Cc1cc(Cl)ccc1N(CC(=O)NCc1ccc2c(c1)OCO2)S(C)(=O)=O | 0.0224 µM [rising, full curve, poor fit] | 7.08 µM [rising, partial curve, poor fit] |
| Cc1ccc(NC(=O)CS(=O)(=O)c2c[nH]c3ccccc23)c(C)c1 | 15.8 µM [rising, single point] | 15.8 µM [rising, single point] |
| O=S(=O)(Nc1ccc2c(c1)nc1n2CCN(Cc2ccccc2)C1)c1ccc(Cl)cc1 | 3.55 µM [rising, full curve, poor fit] | 12.6 µM [rising, partial curve] |
| C=CCn1c(SCc2cc(C(C)=O)ccc2OCC)nc2ccccc2c1=O | 10 µM [rising, partial curve] | 4.47 µM [rising, partial curve] |
| COC(=O)c1[nH]c2cc(C)ccc2c1NC(=O)CN1CCc2cc(OC)c(OC)cc2C1 | 12.6 µM [rising, single point] | 11.2 µM [rising, partial curve] |
| COc1ccc(NC(=O)c2cc3nc(-c4ccccc4)cc(-c4ccccc4)n3n2)c(OC)c1 | 17.8 µM [rising, partial curve, poor fit] | 5.62 µM [rising, partial curve] |
| COc1ccc(-n2cc3c(-c4cccc(Br)c4)nnc(C)c3n2)cc1 |  | 12.6 µM [rising, partial curve] |
| Cc1ccc(C)c(N2CCN(C(=O)c3ccc(NS(=O)(=O)c4c(C)noc4C)cc3)CC2)c1 | 1.78 µM [rising, partial curve, poor fit] | 11.2 µM [rising, partial curve] |
| CCN(CC)CCNC(=O)c1cc2c(-c3ccc(Cl)cc3)nn(C)c2s1 |  | 22.4 µM [rising, single point] |
| CC(=O)Nc1nc2ccc(C(=O)NC3CCCCC3)cc2s1 | 20 µM [rising, partial curve, poor fit] | 11.2 µM [rising, partial curve, poor fit] |
| CC(=O)Nc1ccc(S(=O)(=O)Nc2nc3ccccc3nc2Nc2ccc3ccccc3c2)cc1 |  | 22.4 µM [rising, single point] |
| CC(NC(=O)C1CCCC1)C1CC2CCC1C2 (stereo unspecified) | 0.0178 µM [falling, full curve, poor fit] | 0.0141 µM [falling, full curve, poor fit] |
| COc1ccc(C2C(C(=O)N3CCN(c4ccccn4)CC3)CC(=O)N2c2ccc(OC)cc2)cc1 (stereo unspecified) |  | 11.2 µM [rising, partial curve, poor fit] |
| COCC(=O)N=Nc1c(O)[nH]c2ccccc12 | 2.82 µM [falling, full curve, poor fit] | 3.98 µM [falling, single point] |
| COc1cc(-c2nnc(COC(=O)c3c4c(nc5ccccc35)CCCC4)o2)cc(OC)c1OC |  | 0.112 µM [falling, full curve] |
| O=c1[nH]c(=O)n(C2CCCO2)cc1F (stereo unspecified) | 12.6 µM [falling, partial curve, poor fit] | 17.8 µM [rising, partial curve, poor fit] and 12.6 µM [rising, partial curve] |
| Cc1cc(C)n2nc(C(=O)N/N=C/c3ccccc3Cl)nc2n1 | 1.12 µM [falling, partial curve] | 2 µM [falling, partial curve] |
| CCCCCOc1ccc(Br)cc1CSC(=N)N | 35.5 µM [falling, single point] |  |
| COc1ccc(OC)c(Nc2nc(-c3ccc(O)c(O)c3)cs2)c1 |  | 2.82 µM [rising, full curve, poor fit] |
| FC(F)(F)c1ccccc1-c1ccc2ncnc(NCc3cccs3)c2c1 | 14.1 µM [falling, partial curve] | 12.6 µM [falling, partial curve] |
| CCN(CC)S(=O)(=O)c1cccc(NC(=O)/C=C/c2ccc([N+](=O)[O-])cc2)c1 |  | 15.8 µM [rising, single point] |

Two records picked at random from the list so far:

| Structure (SMILES) | AC50 [1] | AC50 [2] |
| --- | --- | --- |
| CCN(CC)S(=O)(=O)c1cccc(NC(=O)/C=C/c2ccc([N+](=O)[O-])cc2)c1 |  | 15.8 µM [rising, single point] |
| COc1ccc(-n2cc3c(-c4cccc(Br)c4)nnc(C)c3n2)cc1 |  | 12.6 µM [rising, partial curve] |
